Taken from: PubChem BioAssay AID1224830 (NIAID, 2016)

Purpose: 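Regulators of TLR4 signalling towards TNF-alpha in macrophage-like cells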 (primary screen)
System: human THP-1 monocytic leukaemia cells, TNF dual-luciferase reporter clone, PMA-differentiated to macrophage-like cells
Reagents: siRNA pool against human genes, 50 nM
Timing: LPS for 4 h, given about 3 days after siRNA transfection
Treatment: bacterial LPS (TLR4 ligand), 10 ng/ml
Measured: 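Ratio of firefly to renilla light, scaled to the plate median and expressed as a robust z-score per replicate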
Direction: TNF reporter robust z-score: higher = stronger TNF reporter response to LPS
Active means: 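a well is active when its z-score exceeds 2.8 or falls below -1.5; control wells carry no call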
Shown is one part, drawn at random, of about 18,000 deposited reagents. About 2,900 of all reagents (16%) were called active. 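Calls are made per well; low scores hint the gene aids the LPS response, high scores that it dampens it.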 Repeated entries: four replicate wells of each siRNA pool. No sequences are given here.

The opening 6 entries, to show the layout:
target gene | TNF reporter robust z-score | Outcome
ANGPT4 (angiopoietin 4) | -0.13 | inactive
ANGPT4 (angiopoietin 4) | 0.99 | inactive
ANGPT4 (angiopoietin 4) | 0.48 | inactive
ANGPT4 (angiopoietin 4) | 0.61 | inactive
IYD (iodotyrosine deiodinase) | 0.66 | inactive
IYD (iodotyrosine deiodinase) | 1.22 | inactive

Main list, from the first entry:
target gene | TNF reporter robust z-score | Outcome
ANGPT4 (angiopoietin 4) | -0.13 | inactive
ANGPT4 (angiopoietin 4) | 0.99 | inactive
ANGPT4 (angiopoietin 4) | 0.48 | inactive
ANGPT4 (angiopoietin 4) | 0.61 | inactive
IYD (iodotyrosine deiodinase) | 0.66 | inactive
IYD (iodotyrosine deiodinase) | 1.22 | inactive
IYD (iodotyrosine deiodinase) | 1.26 | inactive
IYD (iodotyrosine deiodinase) | -0.35 | inactive
SCGN (secretagogin, EF-hand calcium binding protein) | -0.68 | inactive
SCGN (secretagogin, EF-hand calcium binding protein) | -1.01 | inactive
SCGN (secretagogin, EF-hand calcium binding protein) | -0.03 | inactive
SCGN (secretagogin, EF-hand calcium binding protein) | -0.43 | inactive
CMYA5 (cardiomyopathy associated 5) | 0.56 | inactive
CMYA5 (cardiomyopathy associated 5) | 0.09 | inactive
CMYA5 (cardiomyopathy associated 5) | -0.65 | inactive
CMYA5 (cardiomyopathy associated 5) | 0.47 | inactive
FBXL17 (F-box and leucine rich repeat protein 17) | 0.39 | inactive
FBXL17 (F-box and leucine rich repeat protein 17) | 1.47 | inactive
FBXL17 (F-box and leucine rich repeat protein 17) | -2.42 | active
FBXL17 (F-box and leucine rich repeat protein 17) | 0.63 | inactive
CAVIN1 (caveolae associated protein 1) | 0 | inactive
CAVIN1 (caveolae associated protein 1) | 1.01 | inactive
CAVIN1 (caveolae associated protein 1) | -0.2 | inactive
CAVIN1 (caveolae associated protein 1) | -0.21 | inactive
TSPAN12 (tetraspanin 12) | -0.08 | inactive
TSPAN12 (tetraspanin 12) | -0.74 | inactive
TSPAN12 (tetraspanin 12) | -1.36 | inactive
TSPAN12 (tetraspanin 12) | -0.39 | inactive
DKK2 (dickkopf Wnt signaling pathway inhibitor 2) | 1.06 | inactive
DKK2 (dickkopf Wnt signaling pathway inhibitor 2) | 0.27 | inactive
DKK2 (dickkopf Wnt signaling pathway inhibitor 2) | 0.85 | inactive
DKK2 (dickkopf Wnt signaling pathway inhibitor 2) | 0.19 | inactive
HSPH1 (heat shock protein family H (Hsp110) member 1) | -2.1 | active
HSPH1 (heat shock protein family H (Hsp110) member 1) | -1.68 | active
HSPH1 (heat shock protein family H (Hsp110) member 1) | -1.39 | inactive
HSPH1 (heat shock protein family H (Hsp110) member 1) | -1.83 | active
CIT (citron rho-interacting serine/threonine kinase) | 0.21 | inactive
CIT (citron rho-interacting serine/threonine kinase) | 0.72 | inactive
CIT (citron rho-interacting serine/threonine kinase) | -0.01 | inactive
CIT (citron rho-interacting serine/threonine kinase) | 0.37 | inactive
POC1A (POC1 centriolar protein A) | 0.76 | inactive
POC1A (POC1 centriolar protein A) | 0.08 | inactive
POC1A (POC1 centriolar protein A) | 0.03 | inactive
POC1A (POC1 centriolar protein A) | 0.13 | inactive
IQCH (IQ motif containing H) | 0.22 | inactive
IQCH (IQ motif containing H) | 1.23 | inactive
IQCH (IQ motif containing H) | 0.45 | inactive
IQCH (IQ motif containing H) | 0.11 | inactive
SKIC3 (SKI3 subunit of superkiller complex) | -0.1 | inactive
SKIC3 (SKI3 subunit of superkiller complex) | 0.1 | inactive
SKIC3 (SKI3 subunit of superkiller complex) | -0.58 | inactive
SKIC3 (SKI3 subunit of superkiller complex) | -0.15 | inactive
SYNJ1 (synaptojanin 1) | -0.65 | inactive
SYNJ1 (synaptojanin 1) | 0.81 | inactive
SYNJ1 (synaptojanin 1) | 0.27 | inactive
SYNJ1 (synaptojanin 1) | -0.43 | inactive
CENPB (centromere protein B) | -0.02 | inactive
CENPB (centromere protein B) | 0.36 | inactive
CENPB (centromere protein B) | -0.33 | inactive
CENPB (centromere protein B) | 0.07 | inactive
PITPNM3 (PITPNM family member 3) | -0.33 | inactive
PITPNM3 (PITPNM family member 3) | 0.25 | inactive
PITPNM3 (PITPNM family member 3) | -1.06 | inactive
PITPNM3 (PITPNM family member 3) | 0.47 | inactive
GTF3C5 (general transcription factor IIIC subunit 5) | 1.74 | inactive
GTF3C5 (general transcription factor IIIC subunit 5) | 1.15 | inactive
GTF3C5 (general transcription factor IIIC subunit 5) | 1.13 | inactive
GTF3C5 (general transcription factor IIIC subunit 5) | 2.05 | inactive
IDH3G | -0.99 | inactive
IDH3G | -0.83 | inactive
IDH3G | 0.22 | inactive
LY6G5B (lymphocyte antigen 6 family member G5B) | -0.29 | inactive
LY6G5B (lymphocyte antigen 6 family member G5B) | 0.58 | inactive
LY6G5B (lymphocyte antigen 6 family member G5B) | 1.57 | inactive
LY6G5B (lymphocyte antigen 6 family member G5B) | -0.02 | inactive
